Experimental data reported in PMC2562983.
No constants are given. Whether binding was seen depends on the method and setting. In cells and extracts the contact can be indirect. For some assays here: Binding can be weak; no strength is given.

The chains behind the UniProt entries cited, without tags or fusion partners. Where a name states a change or a piece, a line headed by the entry shows the natural chain unless it says otherwise.
UniProt P63331: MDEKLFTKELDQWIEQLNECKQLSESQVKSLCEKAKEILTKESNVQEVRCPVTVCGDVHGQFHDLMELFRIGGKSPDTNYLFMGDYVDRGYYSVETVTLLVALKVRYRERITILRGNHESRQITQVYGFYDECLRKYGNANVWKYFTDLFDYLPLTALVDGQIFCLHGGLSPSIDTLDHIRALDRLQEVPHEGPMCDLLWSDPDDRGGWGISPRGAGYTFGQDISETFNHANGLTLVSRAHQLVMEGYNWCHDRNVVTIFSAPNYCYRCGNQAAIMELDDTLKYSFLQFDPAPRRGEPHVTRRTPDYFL

T1: p107 (rat (endogenous in RCS)) (UniProt D3ZS28)
T1 sequence: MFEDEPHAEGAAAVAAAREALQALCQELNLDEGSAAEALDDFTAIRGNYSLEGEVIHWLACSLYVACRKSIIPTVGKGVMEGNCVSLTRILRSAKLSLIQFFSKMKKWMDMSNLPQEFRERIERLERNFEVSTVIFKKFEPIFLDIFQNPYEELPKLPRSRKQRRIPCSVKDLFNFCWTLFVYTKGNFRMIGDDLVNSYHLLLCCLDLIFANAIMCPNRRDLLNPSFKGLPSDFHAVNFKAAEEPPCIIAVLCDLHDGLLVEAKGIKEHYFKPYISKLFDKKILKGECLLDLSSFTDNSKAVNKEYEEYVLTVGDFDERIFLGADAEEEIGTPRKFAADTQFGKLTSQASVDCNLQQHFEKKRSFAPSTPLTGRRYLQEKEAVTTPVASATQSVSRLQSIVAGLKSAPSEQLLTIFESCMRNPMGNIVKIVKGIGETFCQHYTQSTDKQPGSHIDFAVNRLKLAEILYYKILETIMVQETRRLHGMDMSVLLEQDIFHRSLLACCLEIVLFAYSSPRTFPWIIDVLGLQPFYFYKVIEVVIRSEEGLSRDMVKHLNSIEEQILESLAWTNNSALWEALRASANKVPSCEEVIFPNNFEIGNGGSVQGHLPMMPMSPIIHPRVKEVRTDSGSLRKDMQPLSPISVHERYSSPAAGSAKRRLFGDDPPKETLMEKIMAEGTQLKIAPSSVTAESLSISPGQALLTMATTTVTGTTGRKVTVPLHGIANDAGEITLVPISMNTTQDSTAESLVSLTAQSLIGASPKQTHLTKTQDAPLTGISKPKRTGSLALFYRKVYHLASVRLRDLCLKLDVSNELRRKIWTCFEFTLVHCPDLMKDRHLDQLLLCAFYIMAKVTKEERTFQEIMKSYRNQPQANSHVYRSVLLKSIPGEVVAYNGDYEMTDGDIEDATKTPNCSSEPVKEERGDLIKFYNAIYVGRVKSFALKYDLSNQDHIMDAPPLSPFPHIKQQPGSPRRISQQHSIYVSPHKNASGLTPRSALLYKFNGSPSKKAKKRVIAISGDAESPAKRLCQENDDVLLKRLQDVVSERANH

B1: p107 (protein, UniProt D3ZS28 1-1049)
chain: T1 sequence

What was measured:
[1] = molecular target: T1, p107 (rat (endogenous in RCS)); experiment: co-IP; as a1, but lysates of RCS cells after 6 hours of FGF treatment
[2] = molecular target: T1, p107 (rat (endogenous in RCS)); experiment: co-IP; as a1, but lysates of RCS cells not treated with FGF
[3] = molecular target: T1, p107 (rat (endogenous in RCS)); experiment: co-IP; endogenous proteins; lysates (modified RIPA without NaF, 1 mg total protein) of RCS cells treated with FGF1 (5 ng/ml) and heparin for the indicated times; IP with anti-PP2A-C (protein A-Sepharose) or agarose-conjugated anti-p107; Western blot with anti-PP2A-C, anti-PP2A-A or anti-p107
[4] = molecular target: PP2A catalytic C subunit (rat (endogenous in RCS)) (UniProt P63331); experiment: co-IP; as a1, but lysates of RCS cells not treated with FGF
[5] = molecular target: PP2A catalytic C subunit (rat (endogenous in RCS)) (UniProt P63331); experiment: co-IP; endogenous proteins; lysates (modified RIPA without NaF, 1 mg total protein) of RCS cells treated with FGF1 (5 ng/ml) and heparin for the indicated times; IP with anti-PP2A-C (protein A-Sepharose) or agarose-conjugated anti-p107; Western blot with anti-PP2A-C, anti-PP2A-A or anti-p107

Molecule | binding [1] | binding [2] | binding [3] | binding [4] | binding [5]
PP2A catalytic C subunit (from UniProt P63331) (enzyme) | binds weakly | no binding (only cells not treated with FGF) | binds | – | –
PP2A scaffolding A subunit (PR65) (rat (endogenous in RCS)) | binds weakly | no binding (only cells not treated with FGF) | binds | – | –
B1 | – | – | – | no binding (only cells not treated with FGF) | binds
